Measured values as given in US5954858A, “Bioreactor process for the continuous removal of organic compounds from a vapor phase process stream” (North Carolina State University, priority 1996, dated 1999).

Experiment: Membrane separation unit experiments (transfer from air to octanol in LIQUI-CEL hollow fiber module)
Conditions: for Ko: air flow 20 L/min

Structure (SMILES): Cc1cccc(C)c1 [m-xylene]
- transfer from air to octanol inside the membrane unit (LIQUI-CEL module, octanol): successfully transferred from air to octanol
- Ko (octanol flow 0.12 L/min): 3.1e-06 cm/s
- Ko (octanol flow 0.56 L/min): 1.03e-05 cm/s
